This is one part of the list. Many values rest on one well or one pass, so single values are uncertain.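 Cells were imaged in 1,536-well plates, and nuclei stained with an antibody against cleaved PARP were counted against all DNA-stained nuclei to give the apoptosis fraction. Screening doses were chosen to leave most cells alive, and resting and induced cleaved-PARP levels differ strongly between cell lines.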
Tests used:
Assay in all cases: cleaved PARP positive nuclei fraction relative to DMSO control; melanoma cells; higher = more apoptosis
Conditions in all cases: library dose: low library concentration; 72 h
[1] = system: 501Mel
[2] = system: A101D
[3] = system: A2058
[4] = system: A375
[5] = system: C32
[6] = system: CBRC008 (line from a melanoma biopsy)
[7] = system: CBRC013 (line from a melanoma biopsy)
[8] = system: CBRC014 (line from a melanoma biopsy)
[9] = system: CBRC016 (line from a melanoma biopsy)
[10] = system: CBRC017 (line from a melanoma biopsy)
[11] = system: COLO792
[12] = system: COLO800
[13] = system: COLO829
[14] = system: G361
[15] = system: IPC-298
[16] = system: IST-MEL1
[17] = system: LB2518-MEL
[18] = system: LOXIMVI
[19] = system: MEL-HO

Compound	cleaved PARP positive nuclei fraction [1] [%]	cleaved PARP positive nuclei fraction [2] [%]	cleaved PARP positive nuclei fraction [3] [%]	cleaved PARP positive nuclei fraction [4] [%]	cleaved PARP positive nuclei fraction [5] [%]	cleaved PARP positive nuclei fraction [6] [%]	cleaved PARP positive nuclei fraction [7] [%]	cleaved PARP positive nuclei fraction [8] [%]	cleaved PARP positive nuclei fraction [9] [%]	cleaved PARP positive nuclei fraction [10] [%]	cleaved PARP positive nuclei fraction [11] [%]	cleaved PARP positive nuclei fraction [12] [%]	cleaved PARP positive nuclei fraction [13] [%]	cleaved PARP positive nuclei fraction [14] [%]	cleaved PARP positive nuclei fraction [15] [%]	cleaved PARP positive nuclei fraction [16] [%]	cleaved PARP positive nuclei fraction [17] [%]	cleaved PARP positive nuclei fraction [18] [%]	cleaved PARP positive nuclei fraction [19] [%]
CC(=O)c1c(C)c2cnc(Nc3ccc(N4CCNCC4)cn3)nc2n(C2CCCC2)c1=O [palbociclib] + C[C@@H]1CCN(C(=O)CC#N)C[C@@H]1N(C)c1ncnc2[nH]ccc12 [CP690550] (first compound 0.04 µM, partner dose 1 µM)	116	70	89.7	97.1	124	114	102	100	56.2	245	103	63	111	188	106	54.6	130	78.6	78.3
CC1(C)NC(=O)N(c2ccc([N+](=O)[O-])c(C(F)(F)F)c2)C1=O [nilutamide] + OCCn1cc(-c2cnc3nnn(Cc4ccc5ncccc5c4)c3n2)cn1 [PF04217903] (first compound 1 µM, partner dose 1 µM)	76.4	52.8	99.2	128	87.5	41.5	80.7	72.7	126	161	126	90.7	24.1	91.6	60.4	198	55	59.5	206
C[C@]1(c2nc3c(C(N)=O)cccc3[nH]2)CCCN1 [Veliparib] + C[C@@H]1CCN(C(=O)CC#N)C[C@@H]1N(C)c1ncnc2[nH]ccc12 [CP690550] (first compound 1.4 µM, partner dose 1 µM)	82.2	46.2	122	138	139	97.6	128	218	60.9	194	64.9	159	165	110	174	31.5	108	127	81.3
Cn1c(Nc2ccc(C(F)(F)F)cc2)nc2cc(Oc3ccnc(-c4ncc(C(F)(F)F)[nH]4)c3)ccc21 + Cc1cc(N2CCOCC2)cc2[nH]c(-c3c(NC[C@@H](O)c4cccc(Cl)c4)cc[nH]c3=O)nc12 [BMS536924] (first compound 0.08 µM, partner dose 0.2 µM)	363	125	113	95.6	51.6	203	72.7	117	252	87.1	813	149	31.9	349	45.7	103	211	59.1	81.6
Clc1ccc(Nc2nnc(Cc3ccncc3)c3ccccc23)cc1 [vatalanib] + O=C(O)c1ccc(-c2c[nH]c3ncc(-c4ccccc4)cc23)cc1C1CCCC1 [GSK650394] (first compound 2 µM, partner dose 0.16 µM)	146	94	96.5	120	171	402	93.8	146	235	196	144	77	145	100	47.3	80.3	92	107	103
Clc1ccc(Nc2nnc(Cc3ccncc3)c3ccccc23)cc1 [vatalanib] + Cc1cc(N2CCOCC2)cc2[nH]c(-c3c(NC[C@@H](O)c4cccc(Cl)c4)cc[nH]c3=O)nc12 [BMS536924] (first compound 2 µM, partner dose 0.2 µM)	188	154	89.3	188	179	189	120	99.4	60.3	85.6	84.1	121	89.5	73.1	61.2	77.7	67.7	26.2	571
Cn1c(Nc2ccc(C(F)(F)F)cc2)nc2cc(Oc3ccnc(-c4ncc(C(F)(F)F)[nH]4)c3)ccc21 + NC(=O)Nc1cc(-c2cccc(F)c2)sc1C(=O)N[C@H]1CCCNC1 [AZD7762] (first compound 0.08 µM, partner dose 0.02 µM)	50.1	141	163	446	346	144	35.3	110	41.5	137	181	134	107	124	64.4	100	188	45.3	39.9
COc1cc(Nc2ncc(F)c(Nc3ccc4c(n3)NC(=O)C(C)(C)O4)n2)cc(OC)c1OC [Tamatinib] + Cc1cc(N2CCOCC2)cc2[nH]c(-c3c(NC[C@@H](O)c4cccc(Cl)c4)cc[nH]c3=O)nc12 [BMS536924] (first compound 0.4 µM, partner dose 0.2 µM)	157	99.7	402	395	210	150	133	100	85.1	114	133	260	127	184	169	204	586	238	155

— the supplement of paper PMC4604168 (melanoma cell lines)
